Measurements published in the supplement of paper PMC10849652.
Some of the results follow.

Sequences of proteins named here, by UniProt entry; tags and fusion partners are left off. A change or cut given only in a name is not applied to a line headed by its entry.
UniProt Q96G23: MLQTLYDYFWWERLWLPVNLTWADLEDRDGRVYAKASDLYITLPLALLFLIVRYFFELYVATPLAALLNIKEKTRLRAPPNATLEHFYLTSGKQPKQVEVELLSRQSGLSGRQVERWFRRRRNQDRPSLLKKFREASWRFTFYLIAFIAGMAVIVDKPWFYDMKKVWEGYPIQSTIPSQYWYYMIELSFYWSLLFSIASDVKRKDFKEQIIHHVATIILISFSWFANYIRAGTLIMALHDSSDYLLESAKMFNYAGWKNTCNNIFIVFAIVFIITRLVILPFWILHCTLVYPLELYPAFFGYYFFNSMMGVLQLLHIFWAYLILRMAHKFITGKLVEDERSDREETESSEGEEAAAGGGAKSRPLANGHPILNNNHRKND
UniProt Q02224: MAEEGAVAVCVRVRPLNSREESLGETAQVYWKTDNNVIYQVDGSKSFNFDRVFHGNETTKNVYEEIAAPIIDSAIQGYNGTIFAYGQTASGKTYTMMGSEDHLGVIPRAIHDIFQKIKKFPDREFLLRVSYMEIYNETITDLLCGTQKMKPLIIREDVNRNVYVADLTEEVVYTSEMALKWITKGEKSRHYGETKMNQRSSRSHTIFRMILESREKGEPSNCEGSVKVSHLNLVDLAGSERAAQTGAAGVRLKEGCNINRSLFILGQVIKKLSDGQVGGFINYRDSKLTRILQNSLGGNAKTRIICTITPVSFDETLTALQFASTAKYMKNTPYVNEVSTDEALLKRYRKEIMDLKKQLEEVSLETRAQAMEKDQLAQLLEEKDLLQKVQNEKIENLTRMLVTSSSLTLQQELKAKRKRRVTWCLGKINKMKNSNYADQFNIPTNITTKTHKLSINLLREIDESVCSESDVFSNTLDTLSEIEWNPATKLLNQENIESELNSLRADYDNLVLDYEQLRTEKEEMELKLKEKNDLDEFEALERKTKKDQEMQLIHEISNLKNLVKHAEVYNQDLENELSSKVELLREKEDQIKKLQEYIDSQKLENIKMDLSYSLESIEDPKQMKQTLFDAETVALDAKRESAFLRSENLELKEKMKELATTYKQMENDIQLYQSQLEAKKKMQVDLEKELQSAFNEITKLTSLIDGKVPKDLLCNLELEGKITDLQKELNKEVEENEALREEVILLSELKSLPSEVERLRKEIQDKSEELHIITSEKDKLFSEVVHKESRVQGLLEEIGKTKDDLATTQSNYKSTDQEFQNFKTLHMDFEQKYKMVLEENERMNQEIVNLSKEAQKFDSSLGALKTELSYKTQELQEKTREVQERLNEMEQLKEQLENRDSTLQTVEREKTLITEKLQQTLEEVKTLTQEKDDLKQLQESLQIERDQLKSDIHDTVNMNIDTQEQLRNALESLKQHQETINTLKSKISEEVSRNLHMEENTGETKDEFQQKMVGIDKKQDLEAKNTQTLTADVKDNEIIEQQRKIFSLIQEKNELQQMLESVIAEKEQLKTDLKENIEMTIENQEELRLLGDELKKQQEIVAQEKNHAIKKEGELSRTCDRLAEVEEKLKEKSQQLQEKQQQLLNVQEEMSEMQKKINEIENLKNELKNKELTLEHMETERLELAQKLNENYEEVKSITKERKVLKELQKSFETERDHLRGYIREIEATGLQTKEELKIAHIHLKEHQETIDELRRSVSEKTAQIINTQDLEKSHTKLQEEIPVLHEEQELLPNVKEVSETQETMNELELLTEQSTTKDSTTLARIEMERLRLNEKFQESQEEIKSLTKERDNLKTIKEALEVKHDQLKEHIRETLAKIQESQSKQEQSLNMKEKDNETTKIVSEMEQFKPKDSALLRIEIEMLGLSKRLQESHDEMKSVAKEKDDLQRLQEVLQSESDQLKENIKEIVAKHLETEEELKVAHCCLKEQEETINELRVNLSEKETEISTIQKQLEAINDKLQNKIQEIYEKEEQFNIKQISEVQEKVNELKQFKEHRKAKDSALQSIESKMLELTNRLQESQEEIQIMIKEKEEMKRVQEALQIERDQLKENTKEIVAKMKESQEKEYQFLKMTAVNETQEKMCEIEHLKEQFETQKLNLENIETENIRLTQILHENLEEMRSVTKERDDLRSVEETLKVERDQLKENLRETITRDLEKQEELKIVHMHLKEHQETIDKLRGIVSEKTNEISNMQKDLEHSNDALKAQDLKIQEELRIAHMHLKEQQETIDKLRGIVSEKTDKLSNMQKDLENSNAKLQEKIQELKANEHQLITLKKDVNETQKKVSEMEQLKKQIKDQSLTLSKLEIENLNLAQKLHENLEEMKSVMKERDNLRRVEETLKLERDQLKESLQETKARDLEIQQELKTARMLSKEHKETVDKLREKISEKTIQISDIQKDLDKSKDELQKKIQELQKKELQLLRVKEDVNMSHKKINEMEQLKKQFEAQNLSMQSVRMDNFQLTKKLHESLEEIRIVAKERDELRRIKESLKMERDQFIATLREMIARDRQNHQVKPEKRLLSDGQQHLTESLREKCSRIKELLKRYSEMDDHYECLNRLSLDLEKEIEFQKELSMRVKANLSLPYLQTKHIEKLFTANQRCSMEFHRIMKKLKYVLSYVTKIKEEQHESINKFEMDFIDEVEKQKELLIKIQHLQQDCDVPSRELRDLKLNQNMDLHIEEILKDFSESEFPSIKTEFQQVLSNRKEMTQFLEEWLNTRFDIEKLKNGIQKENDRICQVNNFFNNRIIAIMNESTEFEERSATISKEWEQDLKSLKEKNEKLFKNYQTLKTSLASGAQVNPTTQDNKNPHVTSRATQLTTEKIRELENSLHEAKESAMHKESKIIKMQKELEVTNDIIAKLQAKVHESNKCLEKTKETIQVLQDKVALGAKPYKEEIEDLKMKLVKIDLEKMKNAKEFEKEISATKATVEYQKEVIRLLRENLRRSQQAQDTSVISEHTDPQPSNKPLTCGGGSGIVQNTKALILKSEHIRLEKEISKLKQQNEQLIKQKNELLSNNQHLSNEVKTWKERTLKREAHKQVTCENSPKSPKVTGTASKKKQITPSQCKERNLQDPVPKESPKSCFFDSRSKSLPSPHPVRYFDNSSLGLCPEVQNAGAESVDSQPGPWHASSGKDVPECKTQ
UniProt P30307: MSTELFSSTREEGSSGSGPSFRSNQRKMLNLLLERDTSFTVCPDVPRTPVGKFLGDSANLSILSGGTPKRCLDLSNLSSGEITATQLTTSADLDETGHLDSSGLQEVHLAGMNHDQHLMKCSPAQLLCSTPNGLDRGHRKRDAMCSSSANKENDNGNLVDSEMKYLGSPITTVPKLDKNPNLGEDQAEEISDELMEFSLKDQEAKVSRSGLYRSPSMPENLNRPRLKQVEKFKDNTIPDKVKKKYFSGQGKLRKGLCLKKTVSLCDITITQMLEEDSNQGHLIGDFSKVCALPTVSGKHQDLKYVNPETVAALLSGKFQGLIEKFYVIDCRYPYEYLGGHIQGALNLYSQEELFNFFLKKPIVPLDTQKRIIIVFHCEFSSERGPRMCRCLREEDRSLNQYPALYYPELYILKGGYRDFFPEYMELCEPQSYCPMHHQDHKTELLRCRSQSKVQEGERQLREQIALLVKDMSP
UniProt P23528, whole entry, looked up: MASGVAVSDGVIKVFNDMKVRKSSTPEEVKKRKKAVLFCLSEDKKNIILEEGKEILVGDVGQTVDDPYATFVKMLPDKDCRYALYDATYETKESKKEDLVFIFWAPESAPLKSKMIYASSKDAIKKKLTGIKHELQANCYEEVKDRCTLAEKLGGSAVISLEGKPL
UniProt P60953, whole entry, looked up: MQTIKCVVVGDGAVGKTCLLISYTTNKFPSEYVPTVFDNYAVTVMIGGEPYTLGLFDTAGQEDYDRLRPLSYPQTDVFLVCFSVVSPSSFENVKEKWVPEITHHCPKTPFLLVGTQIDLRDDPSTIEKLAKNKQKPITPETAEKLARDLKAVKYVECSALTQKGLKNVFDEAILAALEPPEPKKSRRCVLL
UniProt P46527, whole entry, looked up: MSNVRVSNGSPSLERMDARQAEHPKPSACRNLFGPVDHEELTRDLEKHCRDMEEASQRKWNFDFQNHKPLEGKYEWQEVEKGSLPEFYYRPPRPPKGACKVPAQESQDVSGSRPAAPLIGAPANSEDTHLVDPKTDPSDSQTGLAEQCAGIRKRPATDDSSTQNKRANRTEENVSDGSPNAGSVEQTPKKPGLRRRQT
UniProt Q9UFW8: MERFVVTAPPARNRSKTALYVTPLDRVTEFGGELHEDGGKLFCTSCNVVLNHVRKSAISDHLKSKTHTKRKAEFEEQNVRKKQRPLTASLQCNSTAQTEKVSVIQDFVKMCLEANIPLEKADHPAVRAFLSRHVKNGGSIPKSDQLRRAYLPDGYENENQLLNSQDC
UniProt Q9H3Q1: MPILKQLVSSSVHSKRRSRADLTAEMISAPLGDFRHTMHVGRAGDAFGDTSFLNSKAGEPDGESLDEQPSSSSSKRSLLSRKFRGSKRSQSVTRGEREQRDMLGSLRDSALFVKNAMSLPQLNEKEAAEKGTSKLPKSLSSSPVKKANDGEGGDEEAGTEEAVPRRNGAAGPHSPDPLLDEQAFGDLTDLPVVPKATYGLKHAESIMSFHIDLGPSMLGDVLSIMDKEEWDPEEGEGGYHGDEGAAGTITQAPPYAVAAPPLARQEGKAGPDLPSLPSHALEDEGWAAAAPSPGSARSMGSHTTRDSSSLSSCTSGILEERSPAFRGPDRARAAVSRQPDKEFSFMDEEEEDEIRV
UniProt Q711Q0: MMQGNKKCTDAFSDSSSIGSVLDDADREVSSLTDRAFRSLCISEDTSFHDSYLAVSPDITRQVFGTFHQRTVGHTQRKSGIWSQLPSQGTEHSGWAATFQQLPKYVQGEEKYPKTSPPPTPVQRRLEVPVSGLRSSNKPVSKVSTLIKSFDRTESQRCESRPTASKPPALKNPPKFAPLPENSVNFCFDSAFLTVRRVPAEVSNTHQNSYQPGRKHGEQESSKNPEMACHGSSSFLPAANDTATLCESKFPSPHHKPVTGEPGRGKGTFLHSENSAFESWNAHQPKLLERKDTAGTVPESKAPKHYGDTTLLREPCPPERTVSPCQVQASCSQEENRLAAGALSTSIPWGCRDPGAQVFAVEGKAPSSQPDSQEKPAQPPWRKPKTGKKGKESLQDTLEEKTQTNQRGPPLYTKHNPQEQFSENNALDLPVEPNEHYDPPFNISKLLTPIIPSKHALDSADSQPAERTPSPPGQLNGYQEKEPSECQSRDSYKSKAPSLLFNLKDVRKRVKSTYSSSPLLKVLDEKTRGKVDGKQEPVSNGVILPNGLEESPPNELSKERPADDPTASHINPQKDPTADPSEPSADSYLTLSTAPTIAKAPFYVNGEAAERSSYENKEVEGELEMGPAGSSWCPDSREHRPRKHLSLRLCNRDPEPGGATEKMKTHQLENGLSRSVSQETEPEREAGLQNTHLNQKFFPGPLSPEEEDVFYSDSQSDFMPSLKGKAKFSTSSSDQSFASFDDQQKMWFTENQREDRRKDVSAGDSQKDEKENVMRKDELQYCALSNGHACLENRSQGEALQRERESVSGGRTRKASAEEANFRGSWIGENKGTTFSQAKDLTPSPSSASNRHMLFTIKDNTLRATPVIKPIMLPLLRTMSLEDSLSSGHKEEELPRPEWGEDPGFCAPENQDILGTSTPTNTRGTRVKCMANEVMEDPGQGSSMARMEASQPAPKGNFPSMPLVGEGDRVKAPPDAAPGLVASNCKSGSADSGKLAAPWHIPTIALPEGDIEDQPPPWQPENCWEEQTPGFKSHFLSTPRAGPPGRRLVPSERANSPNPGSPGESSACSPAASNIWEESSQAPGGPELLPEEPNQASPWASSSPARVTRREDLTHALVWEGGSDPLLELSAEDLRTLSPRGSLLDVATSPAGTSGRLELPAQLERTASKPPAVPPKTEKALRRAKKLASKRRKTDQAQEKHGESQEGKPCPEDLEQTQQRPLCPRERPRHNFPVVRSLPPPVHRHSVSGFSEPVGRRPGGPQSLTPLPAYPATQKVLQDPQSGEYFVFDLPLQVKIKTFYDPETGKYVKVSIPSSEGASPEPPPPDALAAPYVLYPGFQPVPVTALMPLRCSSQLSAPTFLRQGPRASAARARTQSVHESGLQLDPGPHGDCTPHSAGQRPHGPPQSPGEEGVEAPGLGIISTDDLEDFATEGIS
UniProt Q96JB5: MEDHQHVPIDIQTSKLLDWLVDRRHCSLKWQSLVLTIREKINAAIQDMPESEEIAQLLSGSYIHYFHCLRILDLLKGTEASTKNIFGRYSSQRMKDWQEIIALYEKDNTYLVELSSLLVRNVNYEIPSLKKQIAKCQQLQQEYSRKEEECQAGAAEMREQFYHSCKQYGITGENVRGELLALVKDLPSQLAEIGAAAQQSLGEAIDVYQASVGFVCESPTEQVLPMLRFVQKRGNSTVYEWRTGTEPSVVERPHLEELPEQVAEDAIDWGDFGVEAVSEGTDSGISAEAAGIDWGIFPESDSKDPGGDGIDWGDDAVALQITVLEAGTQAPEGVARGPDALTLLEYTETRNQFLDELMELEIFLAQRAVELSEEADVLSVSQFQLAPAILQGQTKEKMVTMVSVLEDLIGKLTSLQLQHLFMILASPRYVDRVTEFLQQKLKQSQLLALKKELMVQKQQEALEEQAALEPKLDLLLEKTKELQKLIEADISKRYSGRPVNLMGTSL

Experiments:
Assay in all cases: log2 fold change, soluble protein after heating vs DMSO (PISA); higher = thermal stabilisation; K562 lysate, 10 uM; active = over 0.2 and 3.5 SD of the protein, either way, in both replicates (recomputed)
vemurafenib = compound: CCCS(=O)(=O)Nc1ccc(F)c(C(=O)c2c[nH]c3ncc(-c4ccc(Cl)cc4)cc23)c1F [vemurafenib]
Outline: (§1)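 Quantification was by TMTpro 16plex LC-MS/MS with equalised channel sums, applied to the supernatant after 21,000xg for 90 min. Samples were crude K562 extract at 1 mg/mL protein in PBS pH 7.4 with 1 mM MgCl2, treated with 10 μM compound for 30 min, heated for 3 min across 48°C-58°C, pooled and brought to 0.5% NP-40 at 4°C. Values are log-two fold changes in thermal stability relative to solvent controls, from duplicates.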

[1] = compound: CCCS(=O)(=O)Nc1ccc(F)c(C(=O)c2c[nH]c3ncc(Cl)cc23)c1F
Outline: as §1

barasertib = compound: CCN(CCCOc1ccc2c(Nc3cc(CC(=O)Nc4cccc(F)c4)[nH]n3)ncnc2c1)CCOP(=O)(O)O [barasertib]
Outline: as §1

[2] = compound: CC[C@@H]1C(=O)N(C)c2cnc(Nc3ccc(C(=O)NC4CCN(C)CC4)cc3OC)nc2N1C1CCCC1
Outline: as §1

volasertib = compound: CC[C@@H]1C(=O)N(C)c2cnc(Nc3ccc(C(=O)N[C@H]4CC[C@H](N5CCN(CC6CC6)CC5)CC4)cc3OC)nc2N1C(C)C [volasertib]
Outline: as §1

[3] = compound: CCn1c(C(=O)N(C2CC2)C2CC2)cc2c3c(ncn3C)c(Nc3cc(C)n(C)n3)nc21
Outline: as §1

[4] = compound: CCn1cc(-c2ccnc3[nH]c(-c4cccc(CN(C)C)c4)cc23)c(-c2ccc(NC(=O)N(C)C)cc2)n1
Outline: as §1

[5] = compound: CN1CCC(CNc2ccc3ncc(-c4cccc(OC(F)(F)F)c4)n3n2)CC1
Outline: as §1

saracatinib = compound: CN1CCN(CCOc2cc(OC3CCOCC3)c3c(Nc4c(Cl)ccc5c4OCO5)ncnc3c2)CC1 [saracatinib]
Outline: as §1

sotrastaurin = compound: CN1CCN(c2nc(C3=C(c4c[nH]c5ccccc45)C(=O)NC3=O)c3ccccc3n2)CC1 [sotrastaurin]
Outline: as §1

alvocidib = compound: CN1CC[C@H](c2c(O)cc(O)c3c(=O)cc(-c4ccccc4Cl)oc23)[C@H](O)C1 [alvocidib]
Outline: as §1

Tubastatin A = compound: CN1CCc2c(c3ccccc3n2Cc2ccc(C(=O)NO)cc2)C1 [Tubastatin A]
Outline: as §1

[6] = compound: CNC(=O)C1=CC=CC=C1NC2=NC(=NC=C2Cl)NC3=C(C=C(C=C3)N4CCOCC4)OC
Outline: as §1

defactinib = compound: CNC(=O)c1ccc(Nc2ncc(C(F)(F)F)c(NCc3nccnc3N(C)S(C)(=O)=O)n2)cc1 [defactinib]
Outline: as §1

[7] = compound: CNc1nc(-c2ccc3c(N)n[nH]c3c2)cc(N2C[C@@H](C(=O)NC3CCCCC3)CC[C@H]2C)n1
Outline: as §1

encorafenib = compound: COC(=O)N[C@@H](C)CNc1nccc(-c2cn(C(C)C)nc2-c2cc(Cl)cc(NS(C)(=O)=O)c2F)n1 [encorafenib]
Outline: as §1

[8] = compound: COC(=O)[C@H](CCSC)NC(=O)C1=C(C=C(C=C1)NC[C@H](CS)N)C2=CC=CC=C2
Outline: as §1

alisertib = compound: COc1cc(Nc2ncc3c(n2)-c2ccc(Cl)cc2C(c2c(F)cccc2OC)=NC3)ccc1C(=O)O [alisertib]
Outline: as §1

[9] = compound: COc1cc2nc(-c3cc(F)ccc3O)nc(N[C@@H]3CNC[C@H]3C(C)(C)O)c2cc1OC
Outline: as §1

gefitinib = compound: COc1cc2ncnc(Nc3ccc(F)c(Cl)c3)c2cc1OCCCN1CCOCC1 [gefitinib]
Outline: as §1

Row | Target | log2 fold change (vemurafenib) | log2 fold change [1] | log2 fold change (barasertib) | log2 fold change [2] | log2 fold change (volasertib) | log2 fold change [3] | log2 fold change [4] | log2 fold change [5] | log2 fold change (saracatinib) | log2 fold change (sotrastaurin) | log2 fold change (alvocidib) | log2 fold change (Tubastatin A) | log2 fold change [6] | log2 fold change (defactinib) | log2 fold change [7] | log2 fold change (encorafenib) | log2 fold change [8] | log2 fold change (alisertib) | log2 fold change [9] | log2 fold change (gefitinib)
1 | CERS2 (UniProt Q96G23) | inactive: 0 | inactive: 0.084 | inactive: 0.035 | inactive: 0.025 | inactive: -0.01 | inactive: 0.009 | inactive: 0.06 | inactive: -0.037 | inactive: 0.009 | inactive: 0.088 | inactive: 0.051 | inactive: -0.113 | inactive: 0.094 | inactive: 0.046 | inactive: 0.001 | inactive: -0.023 | inactive: -0.027 | inactive: 0.035 | inactive: 0.031 | inactive: -0.042
2 | CENPE (UniProt Q02224) | inactive: 0.004 | inactive: -0.015 | inactive: 0.041 | inactive: 0.091 | inactive: -0.075 | inactive: -0.002 | inactive: -0.085 | inactive: 0.068 | inactive: 0.026 | inactive: 0.034 | inactive: -0.084 | inactive: -0.102 | inactive: 0.017 | inactive: -0.002 | inactive: -0.006 | inactive: -0.009 | inactive: 0.01 | inactive: 0.018 | inactive: -0.012 | inactive: 0.025
3 | CEP250 (UniProt Q9BV73) | inactive: 0.002 | inactive: 0.044 | inactive: 0.038 | inactive: 0.01 | inactive: -0.033 | inactive: -0.007 | inactive: -0.016 | inactive: 0.012 | inactive: 0.032 | inactive: -0.014 | inactive: -0.006 | inactive: -0.012 | inactive: 0.051 | inactive: -0.065 | inactive: 0.216 | inactive: -0.036 | inactive: 0.039 | inactive: -0.041 | inactive: -0.07 | inactive: -0.024
4 | CDC25C (UniProt P30307) | inactive: 0.031 | inactive: 0.093 | inactive: -0.028 | inactive: -0.08 | inactive: -0.004 | inactive: 0.083 | inactive: 0.314 | inactive: 0.155 | inactive: -0.053 | inactive: 0.016 | inactive: 0.022 | inactive: -0.09 | inactive: 0.041 | inactive: 0.067 | inactive: -0.073 | inactive: 0.078 | inactive: 0.14 | inactive: 0.054 | inactive: 0.04 | inactive: -0.069
5 | CDKN2AIP (UniProt Q9NXV6) | inactive: 0.017 | inactive: 0.022 | inactive: -0.028 | inactive: 0.082 | inactive: -0.008 | inactive: -0.026 | inactive: -0.049 | inactive: 0.03 | inactive: -0.004 | inactive: 0.01 | inactive: -0.008 | inactive: -0.066 | inactive: -0.016 | inactive: -0.011 | inactive: 0.054 | inactive: 0.023 | active: 0.236 | inactive: 0.021 | inactive: -0.003 | inactive: -0.073
6 | CFL1 (UniProt P23528) | inactive: -0.024 | inactive: 0.001 | inactive: -0.01 | inactive: -0.024 | inactive: 0.032 | inactive: -0.004 | inactive: 0.108 | inactive: -0.02 | inactive: -0.017 | inactive: -0.017 | inactive: 0.005 | inactive: 0.032 | inactive: -0.011 | inactive: 0.029 | inactive: -0.018 | inactive: -0.042 | inactive: -0.044 | inactive: -0.01 | inactive: 0 | inactive: 0.003
7 | CDC42 isoform 1 (UniProt P60953) | inactive: 0.05 | inactive: -0.027 | inactive: 0.048 | inactive: 0.034 | inactive: 0.001 | inactive: 0.01 | inactive: -0.086 | inactive: 0.161 | inactive: 0.009 | inactive: -0.032 | inactive: -0.083 | inactive: 0.057 | inactive: -0.065 | inactive: -0.094 | inactive: 0.022 | inactive: -0.002 | inactive: -0.052 | inactive: 0.004 | inactive: 0.025 | inactive: 0.014
8 | CDKN1B (UniProt P46527) | inactive: -0.12 | inactive: 0.004 | inactive: -0.032 | inactive: 0.063 | inactive: -0.039 | inactive: 0.099 | inactive: 0.118 | inactive: -0.119 | inactive: -0.012 | inactive: 0.015 | inactive: 0.057 | inactive: 0.048 | inactive: 0.035 | inactive: 0.067 | inactive: -0.045 | inactive: 0.03 | inactive: -0.043 |  | inactive: 0.023 | 
9 | CGGBP1 (UniProt Q9UFW8) | inactive: 0.008 | inactive: 0.011 | inactive: -0.02 | inactive: 0.02 | inactive: 0.043 | inactive: -0.005 | inactive: 0.021 | inactive: 0.027 | inactive: 0.059 | inactive: 0.035 | inactive: -0.009 | inactive: 0.029 | inactive: 0.042 | inactive: 0.002 | inactive: 0.05 | inactive: 0.006 | inactive: 0.035 | inactive: 0.059 | inactive: -0.015 | inactive: 0.026
10 | CDC42EP4 (UniProt Q9H3Q1) | inactive: 0.01 | inactive: -0.01 | inactive: 0.013 | inactive: 0.162 | inactive: 0.013 | inactive: -0.04 | inactive: -0.021 | inactive: 0.042 | inactive: -0.064 | inactive: -0.012 | inactive: -0.086 | inactive: -0.013 | inactive: 0.041 | inactive: 0.033 | inactive: 0.113 | inactive: 0.079 | inactive: -0.054 | inactive: -0.085 | inactive: -0.017 | inactive: 0.006
11 | CDC42BPA isoform 6 (UniProt Q5VT25) | inactive: 0.01 | inactive: 0.036 | inactive: -0.006 | inactive: -0.111 | inactive: -0.043 | inactive: 0.021 | inactive: 0.062 | inactive: -0.118 | inactive: -0.021 | inactive: -0.023 | inactive: -0.099 | inactive: -0.13 | inactive: -0.015 | inactive: -0.002 | inactive: -0.065 | inactive: 0.017 | inactive: 0.093 | inactive: -0.005 | inactive: -0.019 | inactive: -0.004
12 | CDV3 (UniProt Q9UKY7) | inactive: -0.047 | inactive: -0.02 | inactive: -0.026 | inactive: 0.023 | inactive: 0.031 | inactive: -0.04 | inactive: -0.006 | inactive: 0.032 | inactive: 0.012 | inactive: 0.031 | inactive: 0.004 | inactive: 0.019 | inactive: -0.003 | inactive: 0.028 | inactive: 0.026 | inactive: -0.022 | inactive: -0.008 | inactive: -0.013 | inactive: 0.037 | inactive: 0.018
13 | CEFIP (UniProt Q711Q0) | inactive: 0.06 | inactive: 0.036 | inactive: -0.01 | inactive: 0.142 | inactive: -0.017 | inactive: -0.055 | inactive: -0.051 | inactive: -0.002 |  | inactive: 0.051 | inactive: -0.033 | inactive: 0.08 | inactive: -0.01 | inactive: 0.128 |  | inactive: 0.156 | inactive: -0.097 | inactive: -0.002 | inactive: 0.007 | inactive: -0.074
14 | CDC16 (UniProt Q13042) | inactive: -0.042 | inactive: 0.001 | inactive: -0.018 | inactive: -0.074 | inactive: -0.063 | inactive: 0.043 | inactive: 0.046 | inactive: -0.041 | inactive: -0.005 | inactive: 0.02 | inactive: 0.012 | inactive: -0.1 | inactive: 0.002 | inactive: -0.024 | inactive: -0.097 | inactive: 0.032 | inactive: -0.133 | inactive: -0.008 | inactive: -0.037 | inactive: 0.017
15 | CDK5RAP3 isoform 4 (UniProt Q96JB5) | inactive: 0.023 | inactive: 0.013 | inactive: 0.022 | inactive: -0.008 | inactive: -0.051 | inactive: 0.029 | active: -0.313 | inactive: 0.216 | inactive: -0.002 | inactive: -0.021 | inactive: -0.118 | inactive: 0.038 | inactive: -0.007 | inactive: -0.021 | inactive: 0.021 | inactive: 0.007 | inactive: 0.094 | inactive: 0.006 | inactive: 0.026 | inactive: -0.024
16 | CEP85 isoform 2 (UniProt Q6P2H3) | inactive: 0.016 | inactive: 0.145 | inactive: 0.001 | inactive: 0.078 | inactive: -0.031 | inactive: 0.007 | inactive: 0.159 | inactive: -0.078 | inactive: 0.043 | inactive: 0.001 | inactive: 0.033 | inactive: -0.056 | inactive: 0.037 | inactive: 0.063 | inactive: -0.01 | inactive: 0.047 | inactive: -0.17 | inactive: 0.034 | inactive: 0.011 | inactive: -0.013

Exported as tab-separated lines: part of the list above
Row	Target	log2 fold change (vemurafenib)	log2 fold change [1]	log2 fold change (barasertib)	log2 fold change [2]	log2 fold change (volasertib)	log2 fold change [3]	log2 fold change [4]	log2 fold change [5]	log2 fold change (saracatinib)	log2 fold change (sotrastaurin)	log2 fold change (alvocidib)	log2 fold change (Tubastatin A)	log2 fold change [6]	log2 fold change (defactinib)	log2 fold change [7]	log2 fold change (encorafenib)	log2 fold change [8]	log2 fold change (alisertib)	log2 fold change [9]	log2 fold change (gefitinib)
5	CDKN2AIP (UniProt Q9NXV6)	inactive: 0.017	inactive: 0.022	inactive: -0.028	inactive: 0.082	inactive: -0.008	inactive: -0.026	inactive: -0.049	inactive: 0.03	inactive: -0.004	inactive: 0.01	inactive: -0.008	inactive: -0.066	inactive: -0.016	inactive: -0.011	inactive: 0.054	inactive: 0.023	active: 0.236	inactive: 0.021	inactive: -0.003	inactive: -0.073
6	CFL1 (UniProt P23528)	inactive: -0.024	inactive: 0.001	inactive: -0.01	inactive: -0.024	inactive: 0.032	inactive: -0.004	inactive: 0.108	inactive: -0.02	inactive: -0.017	inactive: -0.017	inactive: 0.005	inactive: 0.032	inactive: -0.011	inactive: 0.029	inactive: -0.018	inactive: -0.042	inactive: -0.044	inactive: -0.01	inactive: 0	inactive: 0.003
